Assay results: paper doi:10.1101/2021.02.18.431788
Results are given in words; binding and its absence hold for the method and conditions named. Some binding calls cover weakened binding; strength is not graded here.

Chains of the proteins cited; added tags and fusions are not shown. Lines headed by an entry give the natural chain unless they say otherwise; changes in a name come on top. A line that says so, or that is headed by a name, gives the form on record, which may keep a tag or linker.
Neurofibromin (NF1), full length, isoform 1 (P21359-2, form named): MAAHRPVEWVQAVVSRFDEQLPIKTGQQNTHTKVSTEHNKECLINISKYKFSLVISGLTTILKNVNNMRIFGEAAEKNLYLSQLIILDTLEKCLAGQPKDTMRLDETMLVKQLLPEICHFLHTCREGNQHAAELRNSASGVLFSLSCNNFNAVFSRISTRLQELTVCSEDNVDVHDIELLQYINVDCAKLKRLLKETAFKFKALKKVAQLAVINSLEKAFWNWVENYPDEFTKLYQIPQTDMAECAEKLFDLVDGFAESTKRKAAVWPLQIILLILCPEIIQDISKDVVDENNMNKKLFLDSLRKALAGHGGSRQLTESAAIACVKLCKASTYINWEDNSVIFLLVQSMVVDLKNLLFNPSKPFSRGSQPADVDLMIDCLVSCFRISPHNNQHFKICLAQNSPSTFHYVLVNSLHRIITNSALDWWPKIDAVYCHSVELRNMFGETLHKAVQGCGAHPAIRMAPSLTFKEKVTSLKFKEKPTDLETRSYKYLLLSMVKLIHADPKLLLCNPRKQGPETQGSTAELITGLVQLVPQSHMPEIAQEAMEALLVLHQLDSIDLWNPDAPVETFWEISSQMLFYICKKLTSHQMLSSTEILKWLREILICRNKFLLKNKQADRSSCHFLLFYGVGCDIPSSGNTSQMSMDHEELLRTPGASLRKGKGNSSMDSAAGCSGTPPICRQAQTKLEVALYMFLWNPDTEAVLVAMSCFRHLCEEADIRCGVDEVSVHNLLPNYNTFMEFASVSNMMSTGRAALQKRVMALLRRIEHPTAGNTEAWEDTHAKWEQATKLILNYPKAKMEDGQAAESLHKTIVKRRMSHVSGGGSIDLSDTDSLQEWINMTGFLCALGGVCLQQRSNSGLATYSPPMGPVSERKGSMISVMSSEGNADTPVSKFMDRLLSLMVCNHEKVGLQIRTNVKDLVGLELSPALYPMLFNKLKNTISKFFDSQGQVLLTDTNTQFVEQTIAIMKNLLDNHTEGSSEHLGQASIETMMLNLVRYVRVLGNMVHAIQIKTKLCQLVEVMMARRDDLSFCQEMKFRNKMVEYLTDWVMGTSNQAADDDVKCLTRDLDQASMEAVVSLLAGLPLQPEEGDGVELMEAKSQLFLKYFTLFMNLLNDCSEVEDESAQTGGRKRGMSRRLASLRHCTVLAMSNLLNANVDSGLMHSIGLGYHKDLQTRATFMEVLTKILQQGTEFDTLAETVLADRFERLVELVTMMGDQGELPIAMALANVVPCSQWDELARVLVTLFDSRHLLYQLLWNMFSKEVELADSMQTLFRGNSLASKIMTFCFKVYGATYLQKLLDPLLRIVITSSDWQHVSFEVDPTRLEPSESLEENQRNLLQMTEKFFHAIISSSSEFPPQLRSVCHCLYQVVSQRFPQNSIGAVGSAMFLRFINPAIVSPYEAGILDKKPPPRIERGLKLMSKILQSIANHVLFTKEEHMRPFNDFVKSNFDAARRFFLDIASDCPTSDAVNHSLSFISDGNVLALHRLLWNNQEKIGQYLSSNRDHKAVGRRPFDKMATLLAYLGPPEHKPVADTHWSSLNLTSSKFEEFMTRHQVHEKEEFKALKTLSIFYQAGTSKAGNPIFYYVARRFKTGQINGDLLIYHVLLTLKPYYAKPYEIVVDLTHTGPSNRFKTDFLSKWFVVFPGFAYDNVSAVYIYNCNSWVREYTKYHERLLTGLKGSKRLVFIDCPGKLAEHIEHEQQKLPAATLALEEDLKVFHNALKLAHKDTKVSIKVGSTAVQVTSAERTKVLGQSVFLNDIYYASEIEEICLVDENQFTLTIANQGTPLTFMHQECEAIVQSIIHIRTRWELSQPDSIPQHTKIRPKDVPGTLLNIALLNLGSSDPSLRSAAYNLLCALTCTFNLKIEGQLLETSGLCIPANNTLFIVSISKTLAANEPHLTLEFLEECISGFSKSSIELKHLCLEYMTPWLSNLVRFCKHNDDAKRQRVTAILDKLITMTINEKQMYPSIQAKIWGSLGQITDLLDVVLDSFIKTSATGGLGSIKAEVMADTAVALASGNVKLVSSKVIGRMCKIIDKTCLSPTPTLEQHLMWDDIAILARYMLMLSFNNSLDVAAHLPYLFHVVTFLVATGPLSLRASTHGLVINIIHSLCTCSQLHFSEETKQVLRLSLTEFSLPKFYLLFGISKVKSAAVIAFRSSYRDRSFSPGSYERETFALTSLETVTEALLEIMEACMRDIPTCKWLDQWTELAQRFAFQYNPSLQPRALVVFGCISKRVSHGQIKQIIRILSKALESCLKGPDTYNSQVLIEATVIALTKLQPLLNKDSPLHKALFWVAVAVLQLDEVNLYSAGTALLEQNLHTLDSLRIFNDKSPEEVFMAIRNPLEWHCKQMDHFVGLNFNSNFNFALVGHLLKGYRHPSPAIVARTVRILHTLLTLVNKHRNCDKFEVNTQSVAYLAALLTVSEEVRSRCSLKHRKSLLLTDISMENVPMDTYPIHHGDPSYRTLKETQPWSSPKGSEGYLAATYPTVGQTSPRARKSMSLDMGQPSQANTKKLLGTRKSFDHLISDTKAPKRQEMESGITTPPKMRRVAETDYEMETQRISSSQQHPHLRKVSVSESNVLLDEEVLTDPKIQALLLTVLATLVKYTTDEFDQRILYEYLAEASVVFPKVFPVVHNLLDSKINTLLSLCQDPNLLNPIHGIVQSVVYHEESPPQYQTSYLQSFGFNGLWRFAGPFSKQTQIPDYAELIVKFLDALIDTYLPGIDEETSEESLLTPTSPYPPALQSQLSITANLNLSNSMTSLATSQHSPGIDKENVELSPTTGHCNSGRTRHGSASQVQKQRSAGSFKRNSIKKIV

Target: Neurofibromin (NF1), full length, isoform 1 (human) (UniProt P21359)
Assay: cryo-EM structure

binding: binds
Substance: Neurofibromin (NF1), full length, isoform 1 (from UniProt P21359-2 1-2818)
